# From patent US5843669
# Chains of the proteins cited; added tags and fusions are not shown. A line that says so, or that is headed by a name, gives the form on record, which may keep a tag or linker.
# UniProt P30313, whole entry: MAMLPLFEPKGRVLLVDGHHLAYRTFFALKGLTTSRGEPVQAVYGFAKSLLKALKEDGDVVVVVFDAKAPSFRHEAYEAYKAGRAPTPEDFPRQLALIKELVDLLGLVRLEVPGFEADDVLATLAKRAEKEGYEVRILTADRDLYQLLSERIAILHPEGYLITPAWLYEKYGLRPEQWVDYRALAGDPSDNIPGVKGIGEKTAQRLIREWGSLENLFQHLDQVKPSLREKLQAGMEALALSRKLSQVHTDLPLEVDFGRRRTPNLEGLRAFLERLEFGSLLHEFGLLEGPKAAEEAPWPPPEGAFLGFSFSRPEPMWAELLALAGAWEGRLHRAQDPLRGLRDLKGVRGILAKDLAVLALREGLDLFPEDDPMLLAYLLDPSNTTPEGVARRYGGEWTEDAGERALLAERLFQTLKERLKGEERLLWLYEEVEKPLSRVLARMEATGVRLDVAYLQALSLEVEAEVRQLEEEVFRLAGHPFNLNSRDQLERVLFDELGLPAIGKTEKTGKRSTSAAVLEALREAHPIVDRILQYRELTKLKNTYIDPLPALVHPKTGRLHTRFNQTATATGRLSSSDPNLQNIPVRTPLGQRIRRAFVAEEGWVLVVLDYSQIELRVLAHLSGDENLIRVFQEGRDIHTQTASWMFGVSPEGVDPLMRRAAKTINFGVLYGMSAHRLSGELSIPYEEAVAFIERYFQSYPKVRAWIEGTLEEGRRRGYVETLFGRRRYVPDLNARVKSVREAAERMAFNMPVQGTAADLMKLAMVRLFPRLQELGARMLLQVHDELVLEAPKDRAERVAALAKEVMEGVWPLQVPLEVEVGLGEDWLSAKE
# UniProt P52028, whole entry: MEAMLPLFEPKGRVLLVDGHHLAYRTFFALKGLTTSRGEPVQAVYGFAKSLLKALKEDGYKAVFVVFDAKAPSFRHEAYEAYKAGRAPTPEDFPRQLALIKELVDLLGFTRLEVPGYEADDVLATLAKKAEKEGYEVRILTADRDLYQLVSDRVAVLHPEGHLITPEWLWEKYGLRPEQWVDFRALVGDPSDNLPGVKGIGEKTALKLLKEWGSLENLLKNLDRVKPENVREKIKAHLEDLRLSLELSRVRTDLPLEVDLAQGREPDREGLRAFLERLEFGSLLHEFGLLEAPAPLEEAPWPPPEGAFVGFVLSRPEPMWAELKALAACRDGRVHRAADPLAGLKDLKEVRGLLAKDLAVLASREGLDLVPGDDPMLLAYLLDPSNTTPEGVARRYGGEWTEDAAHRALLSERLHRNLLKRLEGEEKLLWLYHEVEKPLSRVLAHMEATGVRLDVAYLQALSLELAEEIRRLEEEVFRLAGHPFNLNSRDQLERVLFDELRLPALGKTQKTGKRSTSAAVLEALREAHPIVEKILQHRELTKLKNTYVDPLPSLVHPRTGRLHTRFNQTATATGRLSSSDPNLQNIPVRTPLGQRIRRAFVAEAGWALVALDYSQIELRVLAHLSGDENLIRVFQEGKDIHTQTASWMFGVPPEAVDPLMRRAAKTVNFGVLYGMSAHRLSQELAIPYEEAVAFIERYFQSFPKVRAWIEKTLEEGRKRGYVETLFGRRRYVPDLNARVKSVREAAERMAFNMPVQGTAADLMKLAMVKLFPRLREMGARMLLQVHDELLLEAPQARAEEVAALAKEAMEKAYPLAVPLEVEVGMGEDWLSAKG
# UniProt P19821, whole entry: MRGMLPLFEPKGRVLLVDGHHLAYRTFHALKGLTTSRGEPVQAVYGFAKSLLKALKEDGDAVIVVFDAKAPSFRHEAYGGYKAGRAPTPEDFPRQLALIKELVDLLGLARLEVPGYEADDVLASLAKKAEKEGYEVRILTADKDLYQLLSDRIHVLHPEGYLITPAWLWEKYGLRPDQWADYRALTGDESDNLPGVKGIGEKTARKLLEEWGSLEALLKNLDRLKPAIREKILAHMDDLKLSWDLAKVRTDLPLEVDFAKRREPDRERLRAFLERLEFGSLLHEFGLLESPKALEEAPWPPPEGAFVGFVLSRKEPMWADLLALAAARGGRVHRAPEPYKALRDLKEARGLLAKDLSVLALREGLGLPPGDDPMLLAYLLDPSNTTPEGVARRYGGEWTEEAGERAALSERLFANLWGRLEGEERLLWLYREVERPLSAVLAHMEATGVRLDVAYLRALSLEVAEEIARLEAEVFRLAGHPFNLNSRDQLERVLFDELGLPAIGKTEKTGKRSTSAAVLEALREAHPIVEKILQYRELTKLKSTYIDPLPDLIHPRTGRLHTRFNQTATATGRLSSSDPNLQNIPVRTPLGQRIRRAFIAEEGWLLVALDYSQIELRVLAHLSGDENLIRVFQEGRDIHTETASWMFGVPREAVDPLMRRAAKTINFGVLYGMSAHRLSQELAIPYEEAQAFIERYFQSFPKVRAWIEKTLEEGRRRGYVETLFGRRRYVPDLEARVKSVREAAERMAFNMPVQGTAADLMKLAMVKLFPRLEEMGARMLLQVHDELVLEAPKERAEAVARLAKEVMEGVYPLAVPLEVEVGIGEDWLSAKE
# Rad1/Rad10 endonuclease complex (Saccharomyces cerevisiae), one chain, as listed by the source, chain 2 of 2: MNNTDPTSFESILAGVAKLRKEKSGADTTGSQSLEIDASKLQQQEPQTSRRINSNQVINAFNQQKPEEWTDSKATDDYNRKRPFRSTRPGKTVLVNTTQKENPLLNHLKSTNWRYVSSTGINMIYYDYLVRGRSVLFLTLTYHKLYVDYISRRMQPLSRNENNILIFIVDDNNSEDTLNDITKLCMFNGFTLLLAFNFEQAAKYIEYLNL
# Rad1/Rad10 endonuclease complex (Saccharomyces cerevisiae), one chain, as listed by the source, chain 1 of 2: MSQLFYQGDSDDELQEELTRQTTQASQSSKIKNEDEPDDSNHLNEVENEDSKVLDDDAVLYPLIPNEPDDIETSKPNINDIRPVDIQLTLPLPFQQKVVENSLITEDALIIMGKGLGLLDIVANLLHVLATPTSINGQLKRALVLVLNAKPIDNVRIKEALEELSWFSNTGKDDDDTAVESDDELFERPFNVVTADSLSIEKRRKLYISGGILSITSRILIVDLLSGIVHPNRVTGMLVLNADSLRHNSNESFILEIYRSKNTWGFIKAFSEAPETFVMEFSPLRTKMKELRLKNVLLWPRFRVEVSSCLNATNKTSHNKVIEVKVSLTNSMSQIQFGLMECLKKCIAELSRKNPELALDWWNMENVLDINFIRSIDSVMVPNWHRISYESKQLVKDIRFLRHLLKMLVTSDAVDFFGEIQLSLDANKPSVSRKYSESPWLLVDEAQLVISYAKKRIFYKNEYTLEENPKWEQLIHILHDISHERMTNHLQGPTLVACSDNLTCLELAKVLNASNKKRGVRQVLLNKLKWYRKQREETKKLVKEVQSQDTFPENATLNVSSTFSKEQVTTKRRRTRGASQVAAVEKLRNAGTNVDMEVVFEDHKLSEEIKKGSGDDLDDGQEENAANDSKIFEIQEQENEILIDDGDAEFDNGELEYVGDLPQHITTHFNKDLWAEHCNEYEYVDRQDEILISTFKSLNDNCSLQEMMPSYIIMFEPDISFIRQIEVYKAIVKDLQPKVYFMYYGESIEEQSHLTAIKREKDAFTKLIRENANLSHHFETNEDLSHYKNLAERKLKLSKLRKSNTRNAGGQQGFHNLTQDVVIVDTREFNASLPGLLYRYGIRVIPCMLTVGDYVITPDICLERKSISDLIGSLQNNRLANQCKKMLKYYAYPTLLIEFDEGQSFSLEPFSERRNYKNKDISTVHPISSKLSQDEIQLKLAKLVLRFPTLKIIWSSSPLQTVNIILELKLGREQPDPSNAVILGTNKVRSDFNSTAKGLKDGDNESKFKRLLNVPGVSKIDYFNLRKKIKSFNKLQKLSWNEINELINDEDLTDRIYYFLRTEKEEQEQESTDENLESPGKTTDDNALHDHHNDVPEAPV
# For part of these data: Tags and fusion partners may be left off the protein sequences shown.
# Legend:
# Assay in all cases: enzyme reaction in vitro
# [1] = system: Rad1/Rad10 endonuclease complex (Saccharomyces cerevisiae); settings: 37 C, purified recombinant protein, label: 5' biotin, single-stranded DNA
# [2] = target: T1, Exonuclease III (Escherichia coli) (UniProt P09030); settings: 0 or 50 mM KCl, purified recombinant protein, label: 5' biotin, single-stranded DNA
# T1 sequence (looked up, limits assumed): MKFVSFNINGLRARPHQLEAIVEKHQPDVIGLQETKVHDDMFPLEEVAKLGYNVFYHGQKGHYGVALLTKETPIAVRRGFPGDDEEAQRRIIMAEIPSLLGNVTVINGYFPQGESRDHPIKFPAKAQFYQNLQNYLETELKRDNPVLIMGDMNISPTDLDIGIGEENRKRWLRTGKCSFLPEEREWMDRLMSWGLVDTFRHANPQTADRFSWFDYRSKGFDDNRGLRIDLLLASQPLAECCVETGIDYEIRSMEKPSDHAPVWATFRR
# [3] = target: Tfl DNA polymerase (Thermus flavus) (UniProt P30313); settings: less efficient than Tth; purified native protein; label: 5' biotin; single-stranded DNA
# [4] = target: Tth DNA polymerase (Thermus thermophilus) (UniProt P52028); settings: same structures recognised as Cleavase BN; purified native protein; label: 5' biotin; single-stranded DNA
# [5] = target: Taq DNA polymerase (DNAPTaq) (Thermus aquaticus) (UniProt P19821); settings: multiple products with dNTPs due to synthesis; purified native protein; label: 5' 32P; folded or branched DNA
# [6] = variant of tyrosinase exon 4 wild-type sense 157 nt
sequence,measurement,setting,value
CACCGTCCTCTTCAAGAAGTTTATCCAGAAGCCAATGCACCCATTAGACATAACCGGGAATCCTACATGGTTCCTTTTATACCACTGTACAGAAATGGTGATTTCTTTATTTCATCCAAAGATCTGGGCTATGACTATAGCTATCTACAAGATTCAG [tyrosinase 419 mutant sense 157 nt],activity on this sequence,"[1]; one band absent compared with wild type, variant of tyrosinase exon 4 wild-type sense 157 nt",active
same,activity on this sequence,[2]; [6],active
CACCGTCCTCTTCAAGAAGTTTATCCAGAAGCCAATGCACCCATTGGACATAACCAGGAATCCTACATGGTTCCTTTTATACCACTGTACAGAAATGGTGATTTCTTTATTTCATCCAAAGATCTGGGCTATGACTATAGCTATCTACAAGATTCAG [tyrosinase 422 mutant sense 157 nt],activity on this sequence,"[1]; new bands at 42-80 nt, variant of tyrosinase exon 4 wild-type sense 157 nt",active
same,activity on this sequence,[2]; [6],active
CACCGTCCTCTTCAAGAAGTTTATCCAGAAGCCAATGCACCCATTGGACATAACCGGGAATCCTACATGGTTCCTTTTATACCACTGTACAGAAATGGTGATTTCTTTATTTCATCCAAAGATCTGGGCTATGACTATAGCTATCTACAAGATTCAG [tyrosinase exon 4 wild-type sense 157 nt],activity on this sequence,[1]; cleaves 3' arm,active
same,activity on this sequence,[3],active
same,activity on this sequence,[4],active
same,activity on this sequence,[2],active
TAATACGACTCACTATAGGGAGACCGGAATTCGAGCTCGCCCGGGCGAGCTCGAATTCCGTGTATTCTATAGTGTCACCTAAATCGAATTC / GATTTAGGTGACACTATAG [hairpin test molecule with primer annealed to 3' arm],activity on this sequence,[5],active
